These are yes or no findings as the source states them, for the method shown. Binding seen in cells or lysates may run through a third protein. Some results given as binding are weak or reduced against the parent protein; the word gives no strength.

By UniProt entry, the sequences of proteins in these tests, tags left out.
UniProt P17676: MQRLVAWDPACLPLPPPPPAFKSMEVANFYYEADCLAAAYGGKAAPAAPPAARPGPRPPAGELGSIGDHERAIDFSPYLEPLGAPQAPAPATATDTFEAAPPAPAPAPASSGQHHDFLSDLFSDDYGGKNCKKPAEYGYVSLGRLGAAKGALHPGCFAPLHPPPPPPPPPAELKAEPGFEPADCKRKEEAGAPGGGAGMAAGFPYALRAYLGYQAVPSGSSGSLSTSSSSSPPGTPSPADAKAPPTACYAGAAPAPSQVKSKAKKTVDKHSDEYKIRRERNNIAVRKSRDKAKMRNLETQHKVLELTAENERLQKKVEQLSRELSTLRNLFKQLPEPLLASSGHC

For this experiment, the target named is CCAAT/enhancer binding protein-beta (human (endogenous in JEG-3)) (UniProt P17676). The experiment is described as follows: pull-down; biotinylated ds oligonucleotide of the C/EBP-binding element (-117 to -109 of the Tkdp-1 promoter) on immobilized streptavidin as bait; 0.5 to 1.0 mg JEG-3 cell extract, 25 mM Tris-HCl pH 7.5, 150 mM NaCl, 0.5% Triton X-100, 4°C overnight; western blots with C/EBP-β and Ets-2 antibodies.

B1: Ets-2 (protein, UniProt P15036 1-469)
chain: MNDFGIKNMDQVAPVANSYRGTLKRQPAFDTFDGSLFAVFPSLNEEQTLQEVPTGLDSISHDSANCELPLLTPCSKAVMSQALKATFSGFKKEQRRLGIPKNPWLWSEQQVCQWLLWATNEFSLVNVNLQRFGMNGQMLCNLGKERFLELAPDFVGDILWEHLEQMIKENQEKTEDQYEENSHLTSVPHWINSNTLGFGTEQAPYGMQTQNYPKGGLLDSMCPASTPSVLSSEQEFQMFPKSRLSSVSVTYCSVSQDFPGSNLNLLTNNSGTPKDHDSPENGADSFESSDSLLQSWNSQSSLLDVQRVPSFESFEDDCSQSLCLNKPTMSFKDYIQERSDPVEQGKPVIPAAVLAGFTGSGPIQLWQFLLELLSDKSCQSFISWTGDGWEFKLADPDEVARRWGKRKNKPKMNYEKLSRGLRYYYDKNIIHKTSGKRYVYRFVCDLQNLLGFTPEELHAILGVQPDTED
On to B1, for which the binding result is “binds”.

Source of the values: PMC1817651, “Ets-2 and C/EBP-beta are important mediators of ovine trophoblast Kunitz domain protein-1 gene expression in trophoblast”.
